Test results: article PMC7819943, “Rice protein-binding microarrays: a tool to detect cis-acting elements near promoter regions in rice”
The other results are listed elsewhere or left out.

Each sequence was assayed against T1, OsSMF1 (Oryza sativa, UniProt Q6ZLB0 1-436) (assay: protein-binding microarray (RPBM); PBS, 2% BSA, 51.3 ng/ul salmon testes DNA, 50 uM zinc acetate, 200 nM TF, 25 C, 1 h; high values mean tight binding). Details: protein: recombinant; tags: N-terminal polyhistidine and DsRed monomer fusion (pET32a); chain copies: 2; label: CyDye5-dUTP incorporated in the synthesized complementary strand; 3' TTTTT single-stranded linker to array surface; dsDNA, one strand shown.
T1 sequence: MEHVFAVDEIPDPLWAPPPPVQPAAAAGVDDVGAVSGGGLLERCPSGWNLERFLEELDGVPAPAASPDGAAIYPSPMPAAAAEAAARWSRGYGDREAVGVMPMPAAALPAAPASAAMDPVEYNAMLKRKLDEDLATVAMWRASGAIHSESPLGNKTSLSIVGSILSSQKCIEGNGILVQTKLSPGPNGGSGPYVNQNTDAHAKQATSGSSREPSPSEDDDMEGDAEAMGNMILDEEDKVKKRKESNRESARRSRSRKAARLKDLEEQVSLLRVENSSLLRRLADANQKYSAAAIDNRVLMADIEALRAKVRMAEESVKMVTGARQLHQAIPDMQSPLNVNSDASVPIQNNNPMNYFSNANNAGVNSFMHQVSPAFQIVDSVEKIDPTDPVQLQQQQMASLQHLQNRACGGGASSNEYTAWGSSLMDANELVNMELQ
In short: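 In PBS with 2% BSA, salmon testes DNA and 50 µM zinc acetate, 200 nM protein was incubated on a custom Agilent array at 25 °C for 1 h and then washed off. The array had been made double-stranded by primer extension with Cy5-dUTP and blocked with 2% BSA. The proteins were transcription factors fused N-terminally to polyhistidine and DsRed, expressed in E. coli BL21-CodonPlus and purified on Ni–NTA. The binding signal is per-feature fluorescence intensity (arbitrary units) from an Axon 4000B scanner.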

**Q.** “ATGGTATGTCACGCTGTGACTTGCCTTAGCTAAGTCACTGCGGAGTCACCTAGTGCAG” was tested. Which binding signal did it give?
**A.** 3750 fluorescence intensity (a.u.)

**Q.** Which binding signal does the source give for “AGAAGGTCGTGGCGAGGGAGGGTGGGCGACGGGCGTGGCGCGGAGTCACCTAGTGCAG” here?
**A.** 4140 fluorescence intensity (a.u.)

**Q.** “TCGGTTTCGCACAACCGTTGCGTGAAAATGACGTGGAATGCGGAGTCACCTAGTGCAG” was tested. Which binding signal did it give?
**A.** 12000 fluorescence intensity (a.u.)

**Q.** For “GCCGTGCCGTGCCGTGCCGGCCCGCGGGCTCGGCCAGCGGCGGAGTCACCTAGTGCAG”, which binding signal is on record?
**A.** 30700 fluorescence intensity (a.u.)

**Q.** Which binding signal does the source give for “CTCCCGCCTCCCGCCCACGCAATCACCTCTCTCTCTCTCTCGGAGTCACCTAGTGCAG” here?
**A.** 4200 fluorescence intensity (a.u.)

**Q.** Which binding signal does the source give for “GAGTTGTAGTTGGATGGTTCCACGTCAATTCCGGAGTTGACGGAGTCACCTAGTGCAG” here?
**A.** 8790 fluorescence intensity (a.u.)

**Q.** With “TCACCTCACGCTCACAGTGACACTGACACAAGTGCATAGCCGGAGTCACCTAGTGCAG” as the sequence, how does the binding signal read?
**A.** 5090 fluorescence intensity (a.u.)

**Q.** Which binding signal does the source give for “ATGAGGAGGAGAAGGTGCGGCGTCGGGCGGGGAGGAGCAGCGGAGTCACCTAGTGCAG” here?
**A.** 3410 fluorescence intensity (a.u.)

**Q.** For “TGAAGGGTTGCTTTCTGCTATGTCAGTTATTTCGCTTTGTCGGAGTCACCTAGTGCAG”, which binding signal is on record?
**A.** 4530 fluorescence intensity (a.u.)

**Q.** With “CCACCGCCACCGCCGCGTCGTCCTCTTCCACCAACACCTCCGGAGTCACCTAGTGCAG” as the sequence, how does the binding signal read?
**A.** 4330 fluorescence intensity (a.u.)

**Q.** “CAAGCACCCGGCCGTCGAGCTTATCTCGCTGAGTCAAAAGCGGAGTCACCTAGTGCAG” was tested. Which binding signal did it give?
**A.** 3220 fluorescence intensity (a.u.)

**Q.** Which binding signal does the source give for “AAGATCCGGCTGATTTTATTAGAAAAGGACAGGCGTGGGGCGGAGTCACCTAGTGCAG” here?
**A.** 21600 fluorescence intensity (a.u.)

**Q.** For “CTCGTTCCTCCCCTCCCCTGTCAGTCTGCCACGACGGCACCGGAGTCACCTAGTGCAG”, which binding signal is on record?
**A.** 6800 fluorescence intensity (a.u.)

**Q.** “ATTCCAAGCCTTTTCAGATTAGGTGGCACCCTAATCCTTCCGGAGTCACCTAGTGCAG” was tested. Which binding signal did it give?
**A.** 3940 fluorescence intensity (a.u.)

**Q.** Which binding signal does the source give for “TGCACGCACAGCCATCCACAAGCCATGAGCCGGCGCGAGACGGAGTCACCTAGTGCAG” here?
**A.** 3640 fluorescence intensity (a.u.)

**Q.** “CGGCCCACCCACCAACCACCACCACCACCACCACACCCGCCGGAGTCACCTAGTGCAG” was tested. Which binding signal did it give?
**A.** 3740 fluorescence intensity (a.u.)

**Q.** For “GCCTGTGGCCCACGCCGTCAGTGGGAGTGGCGGTGTCGGGCGGAGTCACCTAGTGCAG”, which binding signal is on record?
**A.** 3960 fluorescence intensity (a.u.)

**Q.** How did the binding signal turn out when “CAGCCTCCCATGGCCTCGTGGACCCGTAGTCCAACTGTCCCGGAGTCACCTAGTGCAG” was run?
**A.** 3760 fluorescence intensity (a.u.)

**Q.** How did the binding signal turn out when “GGGCTTCCTTCCAAGCTTCGTCGATCGTCCAGATCAGAGGCGGAGTCACCTAGTGCAG” was run?
**A.** 3370 fluorescence intensity (a.u.)

**Q.** How did the binding signal turn out when “GAGGGAGTACTTTACATGCGTGGCTGCGTAGCGTGTGCATCGGAGTCACCTAGTGCAG” was run?
**A.** 3780 fluorescence intensity (a.u.)

**Q.** For “GCTTCCCTTGATACACGTGGCAGCAGGGAAGCACAATTGCCGGAGTCACCTAGTGCAG”, which binding signal is on record?
**A.** 9970 fluorescence intensity (a.u.)

**Q.** “GACTCCCGCGTGCTCGCCGCGCCGCCCACCGTCACCGCCTCGGAGTCACCTAGTGCAG” was tested. Which binding signal did it give?
**A.** 3230 fluorescence intensity (a.u.)

**Q.** “CTAACACATGCAATAATTCGTGCCGATATCGAGATCGATCCGGAGTCACCTAGTGCAG” was tested. Which binding signal did it give?
**A.** 3580 fluorescence intensity (a.u.)

**Q.** “AACGATGGCGTCCTCGCGTATAAATTCATCGCCCGTGCACCGGAGTCACCTAGTGCAG” was tested. Which binding signal did it give?
**A.** 3620 fluorescence intensity (a.u.)

**Q.** How did the binding signal turn out when “AGATGTGATACATTAGCATTCTAGCACGGCGGTGGCATTGCGGAGTCACCTAGTGCAG” was run?
**A.** 3250 fluorescence intensity (a.u.)

**Q.** “CTCACTTCCATACGCGGCCCGCCGCACGGGTGCGCATCTCCGGAGTCACCTAGTGCAG” was tested. Which binding signal did it give?
**A.** 3310 fluorescence intensity (a.u.)

**Q.** Which binding signal does the source give for “AACCGGGACTAAAGATCGTACCTTTAGTTACGATCTTTAGCGGAGTCACCTAGTGCAG” here?
**A.** 28500 fluorescence intensity (a.u.)

**Q.** Which binding signal does the source give for “CTAACCGCAACTGCCACCTCACGCAAACGGGCTCGCTGGTCGGAGTCACCTAGTGCAG” here?
**A.** 5110 fluorescence intensity (a.u.)

**Q.** With “GGTTTGGATGGAGCTGGAGGTGGGTGAGTTCTTCCACAACCGGAGTCACCTAGTGCAG” as the sequence, how does the binding signal read?
**A.** 3260 fluorescence intensity (a.u.)

**Q.** “TAAAATTTAATTCATATTATACTAATTATTGGTCAAATATCGGAGTCACCTAGTGCAG” was tested. Which binding signal did it give?
**A.** 3230 fluorescence intensity (a.u.)

**Q.** “AGCAACAGCGGGTCACCGCCTCCTCGTGTTCTCTCTGCTGCGGAGTCACCTAGTGCAG” was tested. Which binding signal did it give?
**A.** 3550 fluorescence intensity (a.u.)

**Q.** For “TTAAATTGGTTCAATTGATGTCGACGTTACTATATTTTACCGGAGTCACCTAGTGCAG”, which binding signal is on record?
**A.** 3220 fluorescence intensity (a.u.)

**Q.** How did the binding signal turn out when “TTGTGAATGTCCTAATGACTAGGCTGCCGTGTCAGTCAATCGGAGTCACCTAGTGCAG” was run?
**A.** 7830 fluorescence intensity (a.u.)

**Q.** Which binding signal does the source give for “GAGGCTGCTAGGCGACGTGCGGCCGTCGTGGCAGCGGTGCCGGAGTCACCTAGTGCAG” here?
**A.** 6300 fluorescence intensity (a.u.)

**Q.** “CTCCCGTAGAGATGCAGATACCGTCACAACCTACAACCAACGGAGTCACCTAGTGCAG” was tested. Which binding signal did it give?
**A.** 4050 fluorescence intensity (a.u.)

**Q.** “TAAGTCAACAAGCTATGACAGTAGAAATCACTGTCAATACCGGAGTCACCTAGTGCAG” was tested. Which binding signal did it give?
**A.** 3530 fluorescence intensity (a.u.)

**Q.** “CGTCCATGAGCTGTTAGCTGACATCCTTTTGCTGTATTGACGGAGTCACCTAGTGCAG” was tested. Which binding signal did it give?
**A.** 4450 fluorescence intensity (a.u.)

**Q.** With “TTAGGATAGTTTAATACTGAGATGATACGTTTATGCCGGTCGGAGTCACCTAGTGCAG” as the sequence, how does the binding signal read?
**A.** 3200 fluorescence intensity (a.u.)

**Q.** Which binding signal does the source give for “AAAAGATCCCCTATACTGTAAAGTCAGCAAATCCATGTGGCGGAGTCACCTAGTGCAG” here?
**A.** 4560 fluorescence intensity (a.u.)

**Q.** Which binding signal does the source give for “GATCAATCACAGAGCAAAGCAGCCATTCCTCACGTCACGTCGGAGTCACCTAGTGCAG” here?
**A.** 5470 fluorescence intensity (a.u.)

**Q.** How did the binding signal turn out when “CTCTGGATATATTAATGGATTCTGGATAATGTCCTAGCGGCGGAGTCACCTAGTGCAG” was run?
**A.** 4070 fluorescence intensity (a.u.)

**Q.** With “AACAGCTCAATTAATTAATCGCCCACACCGAAGCGCGCACCGGAGTCACCTAGTGCAG” as the sequence, how does the binding signal read?
**A.** 39800 fluorescence intensity (a.u.)
